# In PMC6283417, “The structure of the RbBP5 β-propeller domain reveals a surface with potential nucleic acid binding sites”:
# Amino acid sequences for entries named in this document (tags omitted). Residues count along the entry.
# UniProt Q8BX09, 1-340 R162E: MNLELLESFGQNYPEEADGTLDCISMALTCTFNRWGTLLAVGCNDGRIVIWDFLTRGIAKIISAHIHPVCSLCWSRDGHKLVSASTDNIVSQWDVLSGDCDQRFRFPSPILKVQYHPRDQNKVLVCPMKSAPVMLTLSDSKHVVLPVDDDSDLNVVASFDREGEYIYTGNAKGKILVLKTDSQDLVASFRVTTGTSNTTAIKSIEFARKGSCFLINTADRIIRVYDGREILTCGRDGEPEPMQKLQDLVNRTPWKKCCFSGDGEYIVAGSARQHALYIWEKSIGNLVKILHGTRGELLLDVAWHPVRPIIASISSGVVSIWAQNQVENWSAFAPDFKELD
# UniProt Q8BX09, 1-340 R220E: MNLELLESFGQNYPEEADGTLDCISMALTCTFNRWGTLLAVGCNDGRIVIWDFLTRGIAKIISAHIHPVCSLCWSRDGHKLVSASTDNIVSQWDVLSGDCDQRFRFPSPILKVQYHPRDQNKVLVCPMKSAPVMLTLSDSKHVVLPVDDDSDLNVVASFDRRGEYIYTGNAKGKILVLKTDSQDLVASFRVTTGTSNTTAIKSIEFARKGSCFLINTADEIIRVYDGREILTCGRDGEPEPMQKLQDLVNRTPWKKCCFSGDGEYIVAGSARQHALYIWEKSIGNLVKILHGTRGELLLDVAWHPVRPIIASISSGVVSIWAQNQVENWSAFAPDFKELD
# UniProt Q8BX09, 1-340 R272E: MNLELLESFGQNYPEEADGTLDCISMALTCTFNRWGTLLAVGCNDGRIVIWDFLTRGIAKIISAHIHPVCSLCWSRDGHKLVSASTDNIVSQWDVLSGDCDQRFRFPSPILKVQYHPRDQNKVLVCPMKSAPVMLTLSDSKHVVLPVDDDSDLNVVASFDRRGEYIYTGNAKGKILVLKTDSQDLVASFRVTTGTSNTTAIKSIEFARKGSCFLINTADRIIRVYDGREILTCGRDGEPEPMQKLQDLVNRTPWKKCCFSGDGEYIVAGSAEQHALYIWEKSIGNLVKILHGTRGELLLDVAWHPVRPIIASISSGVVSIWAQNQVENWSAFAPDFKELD
# UniProt Q8BX09, 1-340 R34E: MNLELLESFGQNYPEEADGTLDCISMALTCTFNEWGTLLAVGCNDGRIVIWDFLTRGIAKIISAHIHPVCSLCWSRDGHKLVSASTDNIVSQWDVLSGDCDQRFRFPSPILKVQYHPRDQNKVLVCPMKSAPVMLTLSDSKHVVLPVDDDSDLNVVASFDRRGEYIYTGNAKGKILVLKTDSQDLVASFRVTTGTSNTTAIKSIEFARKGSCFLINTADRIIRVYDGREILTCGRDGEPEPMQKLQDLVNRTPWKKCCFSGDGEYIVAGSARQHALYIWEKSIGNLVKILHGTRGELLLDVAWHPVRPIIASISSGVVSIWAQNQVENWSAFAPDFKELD
# UniProt Q8BX09, 1-340: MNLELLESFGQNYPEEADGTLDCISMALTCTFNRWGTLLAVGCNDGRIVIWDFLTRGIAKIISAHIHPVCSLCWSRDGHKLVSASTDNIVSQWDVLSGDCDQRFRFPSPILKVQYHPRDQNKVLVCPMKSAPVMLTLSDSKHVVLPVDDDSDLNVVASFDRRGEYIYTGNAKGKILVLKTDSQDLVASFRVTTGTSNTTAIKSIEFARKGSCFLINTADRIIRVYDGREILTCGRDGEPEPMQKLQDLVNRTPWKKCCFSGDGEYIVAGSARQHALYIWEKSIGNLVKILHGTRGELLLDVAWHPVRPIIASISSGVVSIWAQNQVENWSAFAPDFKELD
# Legend:
# [1] = target: RbBP5 (1-340) R162E (mouse) (UniProt Q8BX09); experiment: fluorescence anisotropy; conditions: Anisotropy: 50 mM Tris pH 7.4, 150 mM NaCl, 0.5 mM DTT, 20 C; recombinant protein; residues 1-340; protein details: 6xHis-SUMO removed by 3C protease
# [2] = target: RbBP5 (1-340) R220E (mouse) (UniProt Q8BX09); experiment: fluorescence anisotropy; conditions: Anisotropy: 50 mM Tris pH 7.4, 150 mM NaCl, 0.5 mM DTT, 20 C; recombinant protein; residues 1-340; protein details: 6xHis-SUMO removed by 3C protease
# [3] = target: RbBP5 (1-340) R272E (mouse) (UniProt Q8BX09); experiment: fluorescence anisotropy; conditions: Anisotropy: 50 mM Tris pH 7.4, 150 mM NaCl, 0.5 mM DTT, 20 C; recombinant protein; residues 1-340; protein details: 6xHis-SUMO removed by 3C protease
# [4] = target: RbBP5 (1-340) R34E (mouse) (UniProt Q8BX09); experiment: fluorescence anisotropy; conditions: Anisotropy: 50 mM Tris pH 7.4, 150 mM NaCl, 0.5 mM DTT, 20 C; recombinant protein; residues 1-340; protein details: 6xHis-SUMO removed by 3C protease
# [5] = target: RbBP5 beta-propeller (1-340) wild type (mouse) (UniProt Q8BX09); experiment: fluorescence anisotropy; conditions: Anisotropy: 50 mM Tris pH 7.4, 150 mM NaCl, 0.5 mM DTT, 20 C, recombinant protein, residues 1-340, protein details: 6xHis-SUMO removed by 3C protease
# [6] = target: RbBP5 beta-propeller (1-340) wild type (mouse) (UniProt Q8BX09); experiment: NMR Arg side-chain HSQC; conditions: 4:1 NA:protein, recombinant protein, residues 1-340, protein details: 6xHis-SUMO removed by 3C protease
sequence,measurement,setting,value
GCAUAGGUUCGAUC / GAUCGAACCUAUGC [14-mer dsRNA-6FAM],Kd,[1],37.2 µM
same,Kd,[2],26.1 µM
same,Kd,[3],16.4 µM
same,Kd,[4],32.3 µM
same,Kd,[5],13.2 µM
same,Kd,[5]; mutant series wild-type control,15.7 µM
GCATAGGTTCGATC (double strand) [14-mer dsDNA-6FAM],Kd,[5],29.7 µM
GCAUAGGUUCGAUC / GAUCGAACCUAUGC [14-mer dsRNA (NMR)],binding result,[6]; strongest effect,binds
GCATAGGTTCGATC (double strand) [14-mer dsDNA (NMR)],binding result,[6]; weakest effect,binds

# The exact form of at least one protein or probe is not confirmed.
